No constants are given. Whether binding was seen depends on the method and setting. Binding seen in cells or lysates may run through a third protein. Some results given as binding are weak or reduced against the parent protein; the word gives no strength. Sequences can lack the tags named with a protein. Each block holds one binder with its values, some of them ahead of it.
What was measured:
[1] = biological target: T1, GST-tagged Mtrm (Matrimony) (Drosophila melanogaster, UniProt Q23973 1-217); assay: pull-down; purified GST-tagged protein on beads incubated with 5 µl in vitro translation reaction (reticulocyte lysate) in 500 µl IP buffer, 2 h at 4°C; 3 washes; Western blot with anti-Myc 9E10; only the target purified
T1 construct: mtrm cDNA LD47919 cloned into pGEX6p-1; also called GST-Mtrm; source: expressed and purified from bacteria
T1 sequence (looked up): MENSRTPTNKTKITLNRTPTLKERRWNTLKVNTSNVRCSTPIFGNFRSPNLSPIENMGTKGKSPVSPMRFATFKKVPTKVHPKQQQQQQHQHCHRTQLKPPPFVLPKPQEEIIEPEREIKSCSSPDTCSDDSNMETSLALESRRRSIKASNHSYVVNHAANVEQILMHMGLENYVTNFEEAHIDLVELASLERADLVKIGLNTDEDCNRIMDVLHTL

[2] = biological target: T2, GST-CycA (Cyclin A) (UniProt P14785); assay: as above
T2 sequence: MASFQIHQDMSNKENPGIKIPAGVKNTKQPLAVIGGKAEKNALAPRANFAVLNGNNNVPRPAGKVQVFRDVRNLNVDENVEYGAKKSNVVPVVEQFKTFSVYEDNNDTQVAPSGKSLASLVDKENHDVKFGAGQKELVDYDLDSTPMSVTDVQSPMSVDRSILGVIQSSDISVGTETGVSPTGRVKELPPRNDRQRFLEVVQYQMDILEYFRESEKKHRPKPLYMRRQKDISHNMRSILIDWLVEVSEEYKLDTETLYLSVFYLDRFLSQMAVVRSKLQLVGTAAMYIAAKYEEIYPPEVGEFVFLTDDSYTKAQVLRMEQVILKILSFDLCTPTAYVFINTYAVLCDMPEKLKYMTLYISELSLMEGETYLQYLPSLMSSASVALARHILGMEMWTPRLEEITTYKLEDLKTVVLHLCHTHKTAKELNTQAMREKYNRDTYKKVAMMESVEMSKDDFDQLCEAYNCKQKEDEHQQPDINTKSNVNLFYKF

binding [1]: binds
B1: 6×Myc-CortexΔWD40 (AA 1–148 of Cortex), in vitro translated (domain or fragment, UniProt Q960N3 1-148)
chain: MFVEMSVCDSPNKNSKLDKKSLTPFKKVRRKNWKQEAAYKSDTSKGQEVSYVGERFIPNRFERENIEFNLKYIGKRKERDILETGVTLTASYWRQSGFISNINRTFGIGERRLFQFSSQQGTRSRVVDNDSADSDWPCNPRARPYAIQ

binding [2]: binds | binding [1]: binds
B2: 6×Myc-Cortex (full length), in vitro translated (natural protein, Drosophila melanogaster, UniProt Q960N3 1-483, looked up)
chain: MFVEMSVCDSPNKNSKLDKKSLTPFKKVRRKNWKQEAAYKSDTSKGQEVSYVGERFIPNRFERENIEFNLKYIGKRKERDILETGVTLTASYWRQSGFISNINRTFGIGERRLFQFSSQQGTRSRVVDNDSADSDWPCNPRARPYAIQNATHEMPGICSPVDYNMMDWSSGGMVAMSSGQDVMLWRNLDESTMVFSVESPTSLKYSPDGKHLAIGCMDRNYPVLDLWEVRSPTEFLVSYRKLFFKSMGYISCIEWSHDGKEVICGTQCGVIIVLAMPTLNTLMQLREHRHTVKKMKFAPTHKYFASSDTDGKIFIFDAVLKVRLLKLDGRSIVFDWHPWTGEDLAVAERSPASIFIFNIPRRQFVASYRRRDDRIVIKTLTYSKITGELLVNVIRRDDADLAVCEILVLASLNRVVDLMSHQDRGTLFLMWNPDGTKIATGGLDDTFSLWNFFPTYKREAILRKQEQKAKDKCSSLSLYKGIR
notes: 6×myc-cort cDNA cloned into pOT2; also called Myc-tagged Cort; source: in vitro translated (TnT T7 Coupled Reticulocyte Lysate System, rabbit reticulocyte lysate)

binding [2]: binds
B3: 6×Myc-Fzy/Cdc20, in vitro translated (natural protein, Drosophila melanogaster, UniProt Q24044 1-526, looked up)
chain: MSQFNFVSDLQNALIMDGETRGPAPRWKKKLEASLNGSVNTTRSVLSVSYNTSFSGVQAPTKTPGKSSEGKTKKSNTTPSKTPGGGDRFIPNRAATNFELAHFLVNKDSGDKSDEENDKATSSNSNESNVQASAHKGDRQKLISEVAQVGDSKGGRILCYQNKAPAAPETHNNPLKVVYSIKTPISTKSGSRYIPTTSERILDAPDFINDYYLNLMDWSADNIVAVALGSCVYLWNAQTGNIEQLTEFEEGDYAGSLSWIQEGQILAIGNSTGAVELWDCSKVKRLRVMDGHSARVGSLAWNSFLVSSGSRDGTIVHHDVRAREHKLSTLSGHTQEVCGLKWSTDFKYLASGGNDNLVNVWSAASGGVGTATDPLHKFNDHQAAVRALAWCPWQPSTLASGGGTADRCIKFWNVNNGTLMKSVDSKSQVCSLLFSRHYKELISAHGFANNQLTIWKYPTMVKQADLTGHTSRVLQMAMSPDGSTVISAGADETLRLWNCFAPDPLASKKAVSTSKGKQSVFRQSIR
notes: 6×myc-fzy/cdc20 cDNA cloned into pOT2; also called Myc-tagged Fzy/Cdc20; Fizzy; source: in vitro translated (TnT T7 Coupled Reticulocyte Lysate System, rabbit reticulocyte lysate)

Reference: article PMC3760765, “A Meiosis-Specific Form of the APC/C Promotes the Oocyte-to-Embryo Transition by Decreasing Levels of the Polo Kinase Inhibitor Matrimony” (PLoS Biology, 2013)
